Consider one molecule from publication PMC11150407.

Protein sequences, listed by entry. Tags and fused reporters are not part of them. Lines headed by an entry give the natural chain unless they say otherwise; changes in a name come on top. Chains listed by the source or under a name are the forms on record and can include a tag or linker.
MECOM (EVI1) ORF expressed in 293T cells (Q03112, form named): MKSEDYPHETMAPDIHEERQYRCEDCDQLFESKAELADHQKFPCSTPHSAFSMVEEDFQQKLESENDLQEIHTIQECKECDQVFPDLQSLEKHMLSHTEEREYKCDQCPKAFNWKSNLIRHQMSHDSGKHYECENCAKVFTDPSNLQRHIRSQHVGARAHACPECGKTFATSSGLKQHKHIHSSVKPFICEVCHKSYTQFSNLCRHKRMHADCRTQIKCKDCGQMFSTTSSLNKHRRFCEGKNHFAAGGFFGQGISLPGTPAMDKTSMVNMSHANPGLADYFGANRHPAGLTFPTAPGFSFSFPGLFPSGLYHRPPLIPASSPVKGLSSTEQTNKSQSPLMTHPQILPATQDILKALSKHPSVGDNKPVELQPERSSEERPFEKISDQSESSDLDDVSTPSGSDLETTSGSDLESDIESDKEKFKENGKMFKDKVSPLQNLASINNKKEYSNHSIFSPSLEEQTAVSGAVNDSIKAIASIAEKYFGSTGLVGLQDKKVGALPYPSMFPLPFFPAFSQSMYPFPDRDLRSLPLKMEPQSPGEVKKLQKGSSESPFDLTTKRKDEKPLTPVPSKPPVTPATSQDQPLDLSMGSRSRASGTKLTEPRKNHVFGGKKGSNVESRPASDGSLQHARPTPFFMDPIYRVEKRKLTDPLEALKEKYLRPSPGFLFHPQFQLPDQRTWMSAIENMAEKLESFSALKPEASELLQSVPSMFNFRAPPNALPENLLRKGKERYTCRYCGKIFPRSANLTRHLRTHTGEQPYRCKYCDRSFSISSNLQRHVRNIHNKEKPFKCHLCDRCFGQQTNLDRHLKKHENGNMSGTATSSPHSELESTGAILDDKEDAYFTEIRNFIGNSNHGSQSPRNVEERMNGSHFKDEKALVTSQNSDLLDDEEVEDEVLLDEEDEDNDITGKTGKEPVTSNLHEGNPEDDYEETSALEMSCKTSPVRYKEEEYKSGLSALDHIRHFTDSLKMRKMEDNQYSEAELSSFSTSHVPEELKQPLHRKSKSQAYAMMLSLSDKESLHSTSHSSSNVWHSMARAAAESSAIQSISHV

This assay concerns the target MECOM (EVI1) ORF expressed in 293T cells (UniProt Q03112). Nature of the assay: co-IP; 293T cells transfected with MECOM or PA2G4 ORF vectors, 48 hr after transfection, processed as the endogenous co-IP.

Results are given in words; binding and its absence hold for the method and conditions named. In cells and extracts the contact can be indirect. Some binding calls cover weakened binding; strength is not graded here.

B1: PA2G4 ORF expressed in 293T cells (protein, UniProt Q9UQ80 1-394)
chain: MSGEDEQQEQTIAEDLVVTKYKMGGDIANRVLRSLVEASSSGVSVLSLCEKGDAMIMEETGKIFKKEKEMKKGIAFPTSISVNNCVCHFSPLKSDQDYILKEGDLVKIDLGVHVDGFIANVAHTFVVDVAQGTQVTGRKADVIKAAHLCAEAALRLVKPGNQNTQVTEAWNKVAHSFNCTPIEGMLSHQLKQHVIDGEKTIIQNPTDQQKKDHEKAEFEVHEVYAVDVLVSSGEGKAKDAGQRTTIYKRDPSKQYGLKMKTSRAFFSEVERRFDAMPFTLRAFEDEKKARMGVVECAKHELLQPFNVLYEKEGEFVAQFKFTVLLMPNGPMRITSGPFEPDLYKSEMEVQDAELKALLQSSASRKTQKKKKKKASKTAENATSGETLEENEAGD
Turning to B1, the binding result is “binds”.
